In the supplement of paper PMC3334620:
In all, about 33,000 sequences were measured (“E-score (-0.5 to 0.5)”: median about -0.0014, highest 2% from about 0.25 on). Some of the results follow.

Molecular target: T1, Cad1 (UniProt P24813)
T1 sequence: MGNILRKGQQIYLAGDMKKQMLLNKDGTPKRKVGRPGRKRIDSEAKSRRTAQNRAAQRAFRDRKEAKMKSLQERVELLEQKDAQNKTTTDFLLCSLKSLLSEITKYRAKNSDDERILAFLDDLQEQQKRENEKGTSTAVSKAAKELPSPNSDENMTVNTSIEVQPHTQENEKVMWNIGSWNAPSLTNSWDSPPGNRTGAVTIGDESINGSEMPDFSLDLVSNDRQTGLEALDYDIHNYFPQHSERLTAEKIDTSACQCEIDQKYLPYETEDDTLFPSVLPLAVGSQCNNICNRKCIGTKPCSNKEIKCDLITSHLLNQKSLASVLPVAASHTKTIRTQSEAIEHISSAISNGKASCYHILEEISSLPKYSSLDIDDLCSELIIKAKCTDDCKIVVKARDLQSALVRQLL
Assay: PBM E-score (8-mer binding enrichment) (E-score (-0.5 to 0.5)); higher = stronger / more preferred TF binding
Conditions: protein concentration: 100 nM; construct: GST-full length
Procedure, shortened: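 Bound GST-tagged yeast transcription factors, applied at about 100-200 nM to double-stranded universal all-10-mer Agilent arrays, were detected with fluorescent anti-GST. Scans were normalised with masliner. A modified Wilcoxon-Mann-Whitney statistic, the E-score, was assigned to each ungapped eight-base word pooled with its reverse complement by the Universal PBM Analysis Suite.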

Sequence | PBM E-score
GCGTGTCC | -0.061
ACACATGT | 0.173
CATTCAGA | 0.107
ATCCGCTA | 0.113
ACCTGGGC | -0.403
GGTTGAAC | 0.094
CATTAACG | 0.156
AAGAATCA | 0.0916
ATATCACG | 0.0337
CGCATAAA | 0.0998
ATTAAGAC | 0.0457
CCTGATTC | 0.0985
TGTACACA | 0.256
ACCCCGGA | -0.145
GCACTCAA | -0.0879
ATCCGCTG | -0.0415
AACTTCCG | -0.0611
GAAAGAGA | -0.0583
ACCGTCCC | -0.13
CTTCTAGA | -0.106
ACTTTAAT | 0.138
ATGCAGTA | -0.0106
AACAGAAT | -0.0253
ACGGAGCG | -0.00118
GTATTCAA | 0.14

Sequence | PBM E-score
AAGCACCT | 0.0701
GCATAAAA | 0.119
CCGGGTGA | -0.0555
AAGTGCGT | -0.0193
CTCGGCAG | 0.136
CACCTGCG | 0.0286
ATATTGGC | 0.0348
ACTCGTGA | -0.128
CGTCCCGC | 0.13
AACGTTCG | 0.0404
ATGTGAGC | -0.107
TCAGGTCA | -0.0909
AAGATAGC | 0.0234
AAGCTTTG | 0.0825
GACAGTCA | -0.11
TAGTTTCA | 0.222
GTAAATAA | 0.11
ATATGCCG | 0.187
AGTAGCTC | -0.102
ACTGGACT | 0.0311
GGAACTCC | 0.052
TACATGAA | -0.0238
CACCTCGG | -0.0993
CACAGACG | 0.0172
AGGACATA | 0.134

Sequence | PBM E-score
GTCCTGTA | 0.0962
GACATAAA | 0.227
GTATCCTA | -0.035
CTAAATCA | 0.067
AGAAATAG | 0.0428
GATACACA | 0.0908
CATTTTGG | -0.0199
ACACTGCT | -0.0404
CTCTCCGA | -0.15
GTACCCGA | -0.173
TGCCAGAA | 0.00548
GAGAAGAA | -0.0317
ACTGAGAG | -0.0789
AGCGATTG | 0.0693
GGGTCTGA | -0.115
CCTACATA | -0.1
AGTCGAAA | -0.116
AGGTTCTG | 0.0895
GTGGCATA | -0.127
ACTTCTAA | -0.143
GCCCGTCC | -0.166
TACTTGCA | 0.0513
ACGGTACG | -0.0103
CACATACA | -0.0123
ATTTTGGG | 0.054

Sequence | PBM E-score
CAAACTTA | 0.0865
CTAAACCC | -0.0485
AACTACCA | -0.0966
GGTCGTCA | -0.0613
CACCACGG | -0.291
AAGCTTAA | 0.174
GCTCTGCA | -0.185
CCAGTTTC | -0.155
TTCTCAAA | 0.0876
CCACGGAG | 0.0348
AAGCTAAG | -0.253
TCCAAGAA | -0.0134
CACCCAGG | -0.285
ATTAGGTC | 0.186
AGCACTTA | -0.0215
CTACGTTA | -0.0861
TAGTACTA | -0.0169
GTTGTTCA | 0.0319
ACCGCCGG | -0.176
GAATTAAA | -0.0332
AGCATGCT | 0.0553
CGACACAG | 0.0947
CCCAACAA | -0.083
ATTATTAG | 0.136
GGTCTCAA | -0.0801

As entered above:
Value of GCTCTGCA under PBM E-score: -0.185
Value of GTTGTTCA under PBM E-score: 0.0319
Value of ACCGCCGG under PBM E-score: -0.176

The results go on.

Sequence | PBM E-score
GCCTGTGA | -0.136
GTCGTCAC | -0.00336
ACGGTGAA | 0.103
CTAGATCC | -0.0065
CCTAAACC | -0.00061
ACTACAGT | 0.0593
CAAGCCTG | -0.117
GCGTTCAC | -0.0792
ATGTTGCC | -0.118
GAGTCTGA | -0.0632
CATAGACA | 0.032
ATTTGTAC | 0.119
TCATGTAA | 0.171
AAATGCGT | 0.105
AGCGGCCC | -0.3
GAAACCTA | -0.116
AAGATTAA | 0.153
GACCCTTA | -0.0789
CATTCCTC | -0.245
ATGCTTAA | 0.0324
CATCACGC | -0.0512
AAGCTACA | 0.0773
TCCCGCCA | -0.0694
GGCTTATA | -0.029
ACCGAGTA | 0.102

An excerpt of these results, with tabs.
Sequence	PBM E-score
AAGATTAA	0.153
GACCCTTA	-0.0789
CATTCCTC	-0.245
ATGCTTAA	0.0324
CATCACGC	-0.0512

(cont.)

Sequence | PBM E-score
TATTGCGA | 0.038
CTGGTATA | -0.234
ATATATTG | -0.0927
GAGCTGAA | 0.00328
ATTGGGCG | -0.00174
AATCACGC | 0.0879
CTATTTAC | 0.0673
GCGAGTGA | 0.0547
AACATCAA | 0.0836
ACTAAGAT | 0.214
TGGTAAAA | 0.18
CGTAGGTC | -0.162
CGTCTCAC | -0.00352
AATGCAAG | 0.0846
CAATCCGC | 0.076
CGAGAGAC | -0.122
ATACCTAT | 0.0797
ATAGAGGG | -0.0413
ACTTCTCC | -0.108
ATTAACAC | 0.275
CTTTGGTA | -0.155
GCCCACCA | -0.196
CCCAAGCG | -0.0171
AACTTGTA | 0.0473
CTTAAAGA | -0.0851

Sequence | PBM E-score
CATAACAG | 0.172
AGGAACGG | 0.0386
AAGAACCC | -0.102
GAGTGTCA | 0.153
AGAGTGCA | -0.209
TAGACGAA | -0.0971
GGAGTGTA | -0.241
ATTTACCC | -0.042
ACCATAAA | 0.0469
CCCAATAC | -0.0948
ACAGGGAA | -0.109
AGCCCAGC | -0.128
AATTGTAA | 0.0822
GGAGCTAC | -0.253
AGAGTCTG | -0.158
ACGCTCGC | 0.0494
TAGCCAGA | -0.154
AGCTAATC | 0.154
GTCCACGA | -0.104
TGTTACAA | 0.17
GTACTCGA | -0.0287
CATATGAA | 0.0736
GAGATCTA | -0.0199
TACGCTCA | -0.0567
CAGGGAAG | -0.212

Sequence | PBM E-score
CGGAGAAC | -0.0324
TGGCGAAA | 0.122
TAGCACAA | -0.0106
CTTCAATA | 0.0605
GTGATAAA | 0.12
GCGTCCAA | -0.0369
AGTCACAG | -0.0577
CCCCCGCA | -0.295
CAGAAAGG | -0.153
TTACGCAA | 0.268
AACAGTGA | -0.0303
GTACAGTA | -0.0144
CAATACCC | -0.00468
TCCGAAGA | 0.197
CGCAATAG | 0.0142
CGATGGCA | -0.123
ACCGACGG | -0.141
AACGCATA | 0.218
CTGTGTTC | 0.166
CGATGATA | 0.0469
CAGGGTCC | -0.134
ACGATGTA | 0.191
CAGATTAC | 0.0844
ACAGTGGA | -0.0217
CGAGCGTA | 0.0172

Rewritten as comma-separated lines: part of the list above.
Sequence,PBM E-score
TAGTTTCA,0.222
GTAAATAA,0.11

Remaining list, next part

Sequence | PBM E-score
CATAGCTC | -0.135
AACTCGAG | 0.141
GAAGGGAA | -0.176
CTTAATAC | -0.0147
ACCTCTCC | -0.205
AAAGATCG | -0.0698
CGTCTCAG | 0.0242
TAAGACTA | -0.0699
GAGAATCC | 0.153
GAATTTGA | 0.138
CAACTGTC | 0.0813
ATACTTCC | 0.0356
CCGAGGCC | -0.0203
GCGAGGTA | 0.0523
CGATCTGC | -0.00987
GTCGATGA | -0.0161
GACTGGGC | -0.197
GAATACTC | -0.21
ATACGAGA | -0.156
